These are yes or no findings as the source states them, for the method shown. In cells and extracts the contact can be indirect.

Chains of the proteins cited; added tags and fusions are not shown. Residues count along the entry.
UniProt P04608: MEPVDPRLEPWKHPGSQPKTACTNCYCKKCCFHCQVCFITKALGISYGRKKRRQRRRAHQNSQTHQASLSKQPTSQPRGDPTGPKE
UniProt O15455, residues 24-904: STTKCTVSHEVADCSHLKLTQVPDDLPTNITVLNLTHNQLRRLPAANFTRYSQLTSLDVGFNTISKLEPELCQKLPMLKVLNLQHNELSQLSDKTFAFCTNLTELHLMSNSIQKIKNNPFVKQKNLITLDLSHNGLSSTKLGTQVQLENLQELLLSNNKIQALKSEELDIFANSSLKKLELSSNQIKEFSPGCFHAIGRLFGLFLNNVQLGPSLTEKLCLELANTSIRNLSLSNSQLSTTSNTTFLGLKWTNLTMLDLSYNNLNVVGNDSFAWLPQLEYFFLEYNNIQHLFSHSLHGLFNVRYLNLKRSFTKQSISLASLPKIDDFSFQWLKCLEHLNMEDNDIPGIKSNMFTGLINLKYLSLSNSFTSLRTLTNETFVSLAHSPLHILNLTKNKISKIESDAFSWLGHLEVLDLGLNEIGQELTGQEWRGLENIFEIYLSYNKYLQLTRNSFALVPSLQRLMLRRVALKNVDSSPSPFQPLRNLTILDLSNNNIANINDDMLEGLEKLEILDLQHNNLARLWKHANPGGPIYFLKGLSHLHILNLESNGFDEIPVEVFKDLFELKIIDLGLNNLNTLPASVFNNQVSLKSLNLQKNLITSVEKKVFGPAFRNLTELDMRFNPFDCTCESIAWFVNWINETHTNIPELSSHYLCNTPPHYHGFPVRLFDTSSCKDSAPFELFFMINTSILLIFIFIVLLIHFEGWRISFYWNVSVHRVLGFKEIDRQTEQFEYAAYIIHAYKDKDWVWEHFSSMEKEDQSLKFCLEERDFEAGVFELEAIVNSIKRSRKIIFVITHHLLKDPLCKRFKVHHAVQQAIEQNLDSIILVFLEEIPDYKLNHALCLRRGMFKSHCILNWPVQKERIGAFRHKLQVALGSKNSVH

Our source for the binding values is paper PMC12053450.

This experiment has as its target biotinylated Tat HIV-1 IIIB (HIV-1 IIIB) (UniProt P04608). Kind of experiment: pull-down; 10 μg biotinylated Tat (IIIB) on streptavidin agarose resin as bait; precleared U87MG lysate (NP-40 buffer, 400 μl) incubated overnight at 4°C; eluate immunoblotted; non-biotinylated Tat as negative control; only the target purified.

In the case of “TLR3 (from UniProt O15455 24-904) (receptor)”, the binding result was “no binding”.
